In patent publication US20170342148A1 (UNIVERSITE DE NANTES, published 2017):
Results are given in words; binding and its absence hold for the method and conditions named. Some entries that bind do so weakly or less than the wild type. Sequences can lack the tags named with a protein.

Sequences of proteins named here, by UniProt entry; tags and fusion partners are left off. Residues count along the entry.
UniProt P07333, residues 20-512: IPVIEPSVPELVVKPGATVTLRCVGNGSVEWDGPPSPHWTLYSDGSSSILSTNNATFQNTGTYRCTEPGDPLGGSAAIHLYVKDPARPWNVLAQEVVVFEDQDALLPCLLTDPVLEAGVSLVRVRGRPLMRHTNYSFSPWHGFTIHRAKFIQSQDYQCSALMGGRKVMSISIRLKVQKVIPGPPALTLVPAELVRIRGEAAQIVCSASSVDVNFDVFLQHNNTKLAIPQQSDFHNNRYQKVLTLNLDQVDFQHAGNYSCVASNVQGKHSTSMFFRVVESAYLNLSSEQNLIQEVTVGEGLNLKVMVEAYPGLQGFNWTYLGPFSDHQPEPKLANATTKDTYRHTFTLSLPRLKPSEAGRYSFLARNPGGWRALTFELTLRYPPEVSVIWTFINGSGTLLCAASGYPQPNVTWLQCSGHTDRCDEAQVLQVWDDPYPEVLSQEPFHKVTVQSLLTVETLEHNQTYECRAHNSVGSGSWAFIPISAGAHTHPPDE

Assays:
[1] = target: M-CSF receptor (R&D-Systems ref: 329-MR) (UniProt P07333); experiment: SPR (BIAcore T100), immobilised M-CSF-R
[2] = target: M-CSF receptor (R&D-Systems ref: 329-MR) (UniProt P07333); experiment: SPR, earlier assays with receptor captured at a lower level (about 100-200 RU)
[3] = target: M-CSF receptor (R&D-Systems ref: 329-MR) (UniProt P07333); experiment: SPR (BIAcore T100, 25 C). M-CSF-R was covalently immobilised on a CM5 chip and 50 nM IL-34 was injected.

Measured: binding

B1: recombinant protein IL-34 (Peprotech Ref 200-34, whole protein without signal peptide with His tag on C-terminal) (ligand, UniProt Q6ZMJ4 21-242, looked up, not shown: small tags and cut ends)
chain: NEPLEMWPLTQNEECTVTGFLRDKLQYRSRLQYMKHYFPINYKISVPYEGVFRIANVTRLQRAQVSERELRYLWVLVSLSATESVQDVLLEGHPSWKYLQEVETLLLNVQQGLTDVEVSPKVESVLSLLNAPGPNLKLVRPKALLDNCFRVMELLYCSCCKQSSVLNWQDCEVPSPQSCSPEPSLQYAATQLYPPPPWSPSSPPHSTGSVRPVRAQGEGLLP
binds: all assays above
